# The campaign covered roughly 400,000 compounds. About 13,000 (3.2%) were called active. The inconclusive results got no clear call from the source; some entries with a clear call stand among them for comparison. Calls follow the shape of the dose curve; as a rule, active = well fitted cell-killing curve with a large enough effect; inconclusive = small, poorly fitted or top-dose-only effect, or effect the other way; inactive = flat fitted curve, though single readings scatter. Potencies beside an inconclusive call are fits to weak or partial responses and may not hold up.
# Experiment: qHTS assay for MDR1-selective chemotherapeutics: Primary screen using the drug-selected MDR subline cells KB-V1; also: nearly all actives have a fitted effect of over 60% in size
# Details: KB-V1 MDR cells viability, CellTiter-Glo, 72 h; activity change, negative = cytotoxicity: at 46.1 µM (top of the series)
# Summary of the method: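 Luminescent ATP read-out (CellTiter-Glo, 10 min) measures survival of drug-selected KB-V1 MDR cells after 72 h, 37 degrees C compound exposure. Medium: phenol-red-free DMEM, 10% FBS. Values from fitted concentration-response curves.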
# % is scaled to controls: 0 for no effect and ±100 for the full control effect; potency is read from the fitted curve at half-maximal effect.
Structure (SMILES),Potency,"activity change, negative = cytotoxicity"
CCOc1cc(/C=C(\C(=O)O)c2ccc(S(=O)(=O)N3CCCC3)s2)ccc1OC,"inconclusive: 29.1 µM [cytotoxic, single point]",
Brc1ccc(-c2nnc3c4ccccc4nc(N4CCOCC4)n23)cc1,active: 2.59 µM,
COc1ccc(C(=O)ON=C2C=C(C)C(=O)C(C)=C2)cc1,,inactive: 8.42%
COc1ccc(NS(=O)(=O)c2cc(C(=O)N3CCN(C/C=C/c4ccccc4)CC3)ccc2C)cc1,active: 5.8 µM,
O=C1C=C(NCc2ccco2)CC(c2ccc(Cl)cc2)C1 (stereo unspecified),"inconclusive: 20.6 µM [cytotoxic, single point]",
Cc1onc(-c2ccc(Cl)cc2Cl)c1-c1csc(N/N=C/c2ccccc2)n1,"inconclusive: 14.6 µM [cytotoxic, partial curve, poor fit]",
COc1ccc(-c2c3c(nc4sc5c(Cl)nc(C)nc5c24)CCC3)cc1,"inconclusive: 29.1 µM [cytotoxic, single point]",
CC(CN(C)C)CN1c2ccccc2CCc2ccccc21 (stereo unspecified),"inconclusive: 10.3 µM [cytotoxic, partial curve]",
CC(C)(C)c1cc(CCC(=O)N2CCNCC2)c(C(C)(C)C)cc1O,"inconclusive: 8.2 µM [cytotoxic, partial curve, poor fit]",
COc1ccc(OC)c(Nc2cc(C)nc3nc(C)nn23)c1,active: 20.6 µM,
CC1c2[nH]c3ccccc3c2CCN1C(=O)Nc1ccccc1 (stereo unspecified),active: 8.2 µM,
CCc1ccc(CNC(=O)c2ccc3c(c2)N=C(C)c2cc(C)ccc2S3)cc1,,inactive: -11.7%
O=C(CSc1ccsc1[N+](=O)[O-])N1CCN(c2ccccn2)CC1,"inconclusive: 29.1 µM [cytotoxic, single point]",
O=C(CN(C(=O)c1csnn1)c1ccc(Br)cc1)NC1CCCCC1,"inconclusive: 0.517 µM [cytotoxic, full curve, poor fit]",
CCN1C(=O)[C@H]2[C@@H](c3ccc(C)cc3)N3C(=O)N(c4cccc(C)c4)C(=O)[C@@]3(Cc3ccccc3)[C@H]2C1=O,"inconclusive: 13 µM [cytotoxic, partial curve, poor fit]",
Cc1ccc(C(=O)NCCn2c(C)cc3ccccc32)cc1C,"inconclusive: 29.1 µM [cytotoxic, single point]",
COc1ccc(C(=O)Nn2c(SCC(=O)c3ccc(Cl)cc3)nc3ccccc3c2=O)cc1,active: 5.8 µM,
COc1ccc(Nc2cc(C)nc3nc(C)nn23)cc1Cl,,inactive: 1.55%
CC(=O)Nc1cc2c(cc1[N+](=O)[O-])-c1ccccc1C2=NO,,inactive: 4.55%
O=C(CCN1C(=O)NC2(CCCC2)C1=O)Nc1cccc(S(=O)(=O)N2CCOCC2)c1,,inactive: 0%
O=C(Nc1ccc2c(c1)OCCO2)C(CCc1ccccc1)N1CCC(Cc2ccccc2)CC1 (stereo unspecified),active: 23.1 µM,
COC(=O)c1cnc(N)s1,,inactive: 15.2%
Cc1ccc(C)c(NC(=O)CSc2nnc3n2CCCCC3)c1,,inactive: -3.26%
Cc1ccsc1C(=O)NN=C1CCCCCC1,"inconclusive: 4.11 µM [rising, partial curve]",

# Quoted from the listing, 4 compounds:
Structure (SMILES),Potency,"activity change, negative = cytotoxicity"
CC(CN(C)C)CN1c2ccccc2CCc2ccccc21 (stereo unspecified),"inconclusive: 10.3 µM [cytotoxic, partial curve]",
CC(C)(C)c1cc(CCC(=O)N2CCNCC2)c(C(C)(C)C)cc1O,"inconclusive: 8.2 µM [cytotoxic, partial curve, poor fit]",
COc1ccc(OC)c(Nc2cc(C)nc3nc(C)nn23)c1,active: 20.6 µM,
CC1c2[nH]c3ccccc3c2CCN1C(=O)Nc1ccccc1 (stereo unspecified),active: 8.2 µM,

# The listing continues:

Structure (SMILES),Potency,"activity change, negative = cytotoxicity"
O=c1c(Br)c(N2CCCC2)cnn1-c1ccccc1,"inconclusive: 29.1 µM [cytotoxic, single point]",
Cc1c(NC(=O)c2ccc(OC(C)C)cc2)cccc1-c1nc2ncccc2o1,,inactive: 1.02%
Cc1cc(C)cc(N(CC(=O)NC2CCCCC2)C(=O)CCCC(=O)Nc2ccccn2)c1,,inactive: 0%
Cc1cc(CC(=O)O)c(C)cc1CC(=O)O,"inconclusive: 29.1 µM [rising, single point]",
COCCCNc1nc2c(c(=O)n(Cc3ccc(OC)cc3)c(=O)n2C)n1C,"inconclusive: 14.6 µM [cytotoxic, partial curve, poor fit]",
CN(C(=O)CSc1nc(N)cc(=O)[nH]1)C1CCCCC1,"inconclusive: 29.1 µM [rising, single point]",
Cc1c2cnn(CC(=O)NCc3ccccn3)c(=O)c2c(C)n1Cc1ccccc1,,inactive: 15.2%
Cc1cccc(OCC(=O)Nc2ccc(N3CCN(C(=O)c4ccccc4)CC3)cc2)c1,"inconclusive: 5.8 µM [cytotoxic, partial curve]",
CCC(=O)c1c[nH]c(C(=O)NCc2ccccc2OC)c1,,inconclusive: -32.6%
Cc1ccc(CNC(=O)C2CCCN(S(=O)(=O)c3ccc4c(c3)oc(=O)n4C)C2)cc1 (stereo unspecified),,inactive: 1.31%
O=C1CCC2c3ccc4ccccc4c3CCN12 (stereo unspecified),"inconclusive: 18.4 µM [cytotoxic, single point]",
FC(F)(F)c1cccc(NC(=S)Nc2ccc(Cl)c(Cl)c2)c1,,inactive: 24.1%
O=C(C[n+]1cccc2cc(Cl)ccc21)c1cccc([N+](=O)[O-])c1,,inconclusive: 41.3%
COc1cccc(C(=O)NCCSc2c(-c3ccc(F)cc3)[nH]c3ccccc23)c1OC,"inconclusive: 18.4 µM [cytotoxic, single point]",
CCN(CC)c1ccc(C2NCC(c3ccc([N+](=O)[O-])cc3)O2)cc1 (stereo unspecified),,inactive: 5.92%
Cc1c(Cl)ccc2c(C(=O)NCCN3CCCCC3)cc(-c3ccccn3)nc12,"inconclusive: 4.61 µM [cytotoxic, partial curve]",
CSc1ccc(-c2ccc3c(c2)c(Sc2ccccc2)c(-c2ccccc2)n3C)cc1,,inactive: 0%
COc1ccc(-c2cnnn2-c2ccc(NC(=O)c3c(F)cccc3F)cc2)cc1,,inactive: 9.54%
Cn1c(N2CCCCC2)nc2c1c(=O)[nH]c(=O)n2C,,inactive: -1.43%
CC(C)(C)c1ccc(NC(=O)CSc2n[nH]c(=O)n2-c2cccnc2)cc1,"inconclusive: 2.91 µM [rising, partial curve, poor fit]",
CCOC(=O)c1cnc2cc(Cl)c(OC)cc2c1NCC1CCCO1 (stereo unspecified),"inconclusive: 16.4 µM [cytotoxic, single point]",
COc1ccc(CNS(=O)(=O)c2ccc3c(c2)CCN3C(=O)C2CC2)cc1,"inconclusive: 29.1 µM [cytotoxic, single point]",
Cc1c(Cl)cccc1NC(=S)N(Cc1ccccc1)Cc1cccnc1,"inconclusive: 29.1 µM [cytotoxic, single point]",
CN1CCN(c2ccccc2NC(=O)c2cccc(OCc3ccccc3)c2)CC1,,inactive: -5.51%

Structure (SMILES),Potency,"activity change, negative = cytotoxicity"
N#CC(c1ccc(Cl)cc1)(c1ncc(C(F)(F)F)cc1Cl)N1CCOCC1 (stereo unspecified),"inconclusive: 14.6 µM [cytotoxic, partial curve]",
O=C1C2C3C=CC(C3)C2C(=O)N1/N=C/c1ccc(-c2ccccc2[N+](=O)[O-])o1 (stereo unspecified),,inactive: -23.4%
COC(=O)C1=NNC2(c3ccc(C)cc3)C(=O)N(c3cccc(C)c3C)C(=O)C12 (stereo unspecified),"inconclusive: 23.1 µM [cytotoxic, partial curve]",
COc1cccc(Oc2nc(-c3ccncc3)nc3ccccc23)c1,"inconclusive: 20.6 µM [cytotoxic, single point]",
Cc1cc(C)n(CC(C)Nc2nc3nonc3nc2N2CCCCC2)n1 (stereo unspecified),"inconclusive: 29.1 µM [cytotoxic, single point]",
Cc1ccc(NC(=O)Cn2c(=O)n(CCCCCC(=O)NCc3ccc(F)cc3)c(=O)c3sccc32)cc1C,,inactive: 3.52%
FC(F)(F)c1cccc(Cn2nnnc2-c2cccc(C(F)(F)F)c2)c1,active: 14.6 µM,
O=S(=O)(NC1c2cccc3cccc(c23)C1N1CCN(CCO)CC1)c1ccccc1 (stereo unspecified),"inconclusive: 18.4 µM [cytotoxic, partial curve, poor fit]",
O=C(CN(C(=O)c1csnn1)c1ccc(F)c(Cl)c1)NCc1ccc(F)cc1,"inconclusive: 7.31 µM [cytotoxic, partial curve]",
CCCOc1ccc(-c2nn(-c3ccccc3)cc2C2NC(=O)NC(C)=C2C(=O)OC(C)C)cc1 (stereo unspecified),"inconclusive: 29.1 µM [cytotoxic, single point]",
O=C1Nc2c(c(=O)[nH]c(=O)n2-c2ccccc2)C1(NS(=O)(=O)c1ccc(Cl)cc1)C(F)(F)F (stereo unspecified),,inactive: -22.1%
CC(C)c1ccc(NC(=O)c2cc(S(=O)(=O)NCC3COc4ccccc4O3)ccc2F)cc1 (stereo unspecified),"inconclusive: 29.1 µM [cytotoxic, single point]",
C=CCN(c1ccccc1OC)S(=O)(=O)c1cccc(C(=O)OCC(=O)N2CCOCC2)c1,"inconclusive: 0.0291 µM [cytotoxic, full curve]",
Cc1ccc(S(=O)(=O)NCCSc2nnnn2-c2cc(C)ccc2C)cc1,"inconclusive: 18.4 µM [cytotoxic, single point]",
Cc1[nH]c2ccccc2c1C(=O)C(=O)N1CC(C)OC(C)C1 (stereo unspecified),,inactive: -12.1%
Nn1cnnc1N/N=C/c1ccc(Cl)c([N+](=O)[O-])c1,"inconclusive: 29.1 µM [rising, single point]",
COC(=O)C1=C(C)N(Cc2ccc(C)cc2)C(=O)/C1=C\c1ccc(O)c(OC)c1,"inconclusive: 23.1 µM [cytotoxic, partial curve]",
COc1ccc(NC(=O)Cc2csc(NC(=O)Nc3ccccc3OC)n2)c(OC)c1,"inconclusive: 7.31 µM [cytotoxic, partial curve]",
CCc1cc2c(=O)[nH]c(Cc3ccc(OC)cc3)nc2s1,"inconclusive: 11.6 µM [cytotoxic, partial curve]",
NC(=O)c1cc(S(=O)(=O)N2CCN(c3ccc(F)cc3)CC2)cs1,,inactive: 16%
COc1ccccc1-c1ccc(SCc2cccc(F)c2)nn1,"inconclusive: 10.3 µM [cytotoxic, partial curve, poor fit]",
CCC(CC)c1nn2c(=O)cc(COc3ccc(NC(=O)c4ccccc4Cl)cc3)nc2s1,"inconclusive: 29.1 µM [rising, single point]",
Cc1ccccc1NC(=S)N(CCCN1CCOCC1)Cc1cccs1,"inconclusive: 5.8 µM [cytotoxic, partial curve]",
